Results: patent publication US20250283871A1, “COMPOSITIONS AND METHODS FOR MODULATING THE INTERACTION BETWEEN SS18-SSX FUSION ONCOPROTEIN AND NUCLEOSOMES” (Dana-Farber Cancer Institute, Inc., priority 2020, published 2025)

Tested on: BAF complex subunits and histone proteins
Assay: Mass spectrometry proteomics of purified HA-SS18 WT and HA-SS18-SSX1 complexes (Tables 5A-5E)
Set-up: species or system human
[1] = HA-SS18SSX1_CHR_peptides: protein identified in the HA-SS18-SSX1 purification from solubilized chromatin (CHR), HEK-293T
[2] = HA-SS18SSX1 purification, NE (soluble nuclear extract) fraction, HEK-293T, peptides per identified protein
[3] = HA-SS18WT_CHR_peptides: HA-SS18 WT purification from nuclease-treated solubilized chromatin (CHR), HEK-293T, label = protein identified
[4] = HA-SS18WT_NE_peptides: proteins co-purified with HA-SS18 WT from nuclear extract (NE), HEK-293T
[5] = HA-SS18SSX1_NE_peptides: protein co-purified with HA-SS18-SSX1 BAF complexes from soluble nuclear extract (NE), HEK-293T cells
[6] = HA-SS18WT_CHR_peptides: protein identified in HA-SS18 WT BAF complex purification from nuclease-treated solubilized chromatin (CHR), HEK-293T

B1: SF3B2 (protein, UniProt Q13435 1-895, looked up)
Splicing factor 3B subunit 2: MATEHPEPPKAELQLPPPPPPGHYGAWAAQELQAKLAEIGAPIQGNREELVERLQSYTRQTGIVLNRPVLRGEDGDKAAPPPMSAQLPGIPMPPPPLGLPPLQPPPPPPPPPPGLGLGFPMAHPPNLGPPPPLRVGEPVALSEEERLKLAQQQAALLMQQEERAKQQGDHSLKEHELLEQQKRAAVLLEQERQQEIAKMGTPVPRPPQDMGQIGVRTPLGPRVAAPVGPVGPTPTVLPMGAPVPRPRGPPPPPGDENREMDDPSVGPKIPQALEKILQLKESRQEEMNSQQEEEEMETDARSSLGQSASETEEDTVSVSKKEKNRKRRNRKKKKKPQRVRGVSSESSGDREKDSTRSRGSDSPAADVEIEYVTEEPEIYEPNFIFFKRIFEAFKLTDDVKKEKEKEPEKLDKLENSAAPKKKGFEEEHKDSDDDSSDDEQEKKPEAPKLSKKKLRRMNRFTVAELKQLVARPDVVEMHDVTAQDPKLLVHLKATRNSVPVPRHWCFKRKYLQGKRGIEKPPFELPDFIKRTGIQEMREALQEKEEQKTMKSKMREKVRPKMGKIDIDYQKLHDAFFKWQTKPKLTIHGDLYYEGKEFETRLKEKKPGDLSDELRISLGMPVGPNAHKVPPPWLIAMQRYGPPPSYPNLKIPGLNSPIPESCSFGYHAGGWGKPPVDETGKPLYGDVFGTNAAEFQTKTEEEEIDRTPWGELEPSDEESSEEEEEEESDEDKPDETGFITPADSGLITPGGFSSVPAGMETPELIELRKKKIEEAMDGSETPQLFTVLPEKRTATVGGAMMGSTHIYDMSTVMSRKGPAPELQGVEVALAPEELELDPMAMTQKYEEHVREQQAQVEKEDFSDMVAEHAAKQKQKKRKAQPQDSRGGSKKYKEFKF
For B1, which “Total (total peptides)” value [1] is on record?
The value was 17.

What about the “Unique (unique peptides)” value [1] of the same molecule?
Its value is 15.

What about the “Total (total peptides)” value [2] of the same molecule?
The value was 3.

And the “Unique (unique peptides)” value [2]?
Its value is 3.

And the “Total (peptides)” value [3]?
The value was 7.

And the “Unique (peptides)” value [3]?
Its value is 7.

What about the “Total (peptides)” value [4] of the same molecule?
Its value is 2.

What about the “Unique (peptides)” value [4] of the same molecule?
Its value is 2.

B2: RBM12B (protein, UniProt Q8IXT5 1-1001, looked up)
RNA-binding protein 12B: MAVVIRLLGLPFIAGPVDIRHFFTGLTIPDGGVHIIGGEIGEAFIIFATDEDARRAISRSGGFIKDSSVELFLSSKAEMQKTIEMKRTDRVGRGRPGSGTSGVDSLSNFIESVKEEASNSGYGSSINQDAGFHTNGTGHGNLRPRKTRPLKAENPYLFLRGLPYLVNEDDVRVFFSGLCVDGVIFLKHHDGRNNGDAIVKFASCVDASGGLKCHRSFMGSRFIEVMQGSEQQWIEFGGNAVKEGDVLRRSEEHSPPRGINDRHFRKRSHSKSPRRTRSRSPLGFYVHLKNLSLSIDERDLRNFFRGTDLTDEQIRFLYKDENRTRYAFVMFKTLKDYNTALSLHKTVLQYRPVHIDPISRKQMLKFIARYEKKRSGSLERDRPGHVSQKYSQEGNSGQKLCIYIRNFPFDVTKVEVQKFFADFLLAEDDIYLLYDDKGVGLGEALVKFKSEEQAMKAERLNRRRFLGTEVLLRLISEAQIQEFGVNFSVMSSEKMQARSQSRERGDHSHLFDSKDPPIYSVGAFENFRHQLEDLRQLDNFKHPQRDFRQPDRHPPEDFRHSSEDFRFPPEDFRHSPEDFRRPREEDFRRPSEEDFRRPWEEDFRRPPEDDFRHPREEDWRRPLEEDWRRPLEEDFRRSPTEDFRQLPEEDFRQPPEEDLRWLPEEDFRRPPEEDWRRPPEEDFRRPLQGEWRRPPEDDFRRPPEEDFRHSPEEDFRQSPQEHFRRPPQEHFRRPPPEHFRRPPPEHFRRPPPEHFRRPPPEHFRRPPPEHFRRPPPEHFRRPPQEHFRRPPQEHFRRSREEDFRHPPDEDFRGPPDEDFRHPPDEDFRSPQEEDFRCPSDEDFRQLPEEDLREAPEEDPRLPDNFRPPGEDFRSPPDDFRSHRPFVNFGRPEGGKFDFGKHNMGSFPEGRFMPDPKINCGSGRVTPIKIMNLPFKANVNEILDFFHGYRIIPDSVSIQYNEQGLPTGEAIVAMINYNEAMAAIKDLNDRPVGPRKVKLTLL
B2 was tested. Which “Total (total peptides)” value [1] did it give?
The value was 18.

What about the “Unique (unique peptides)” value [1] of the same molecule?
The value was 15.

And the “Total (peptides)” value [3]?
Its value is 9.

And the “Unique (peptides)” value [3]?
Its value is 9.

B3: NOP2 (protein, UniProt P46087 1-812, looked up)
28S rRNA …: MGRKLDPTKEKRGPGRKARKQKGAETELVRFLPAVSDENSKRLSSRARKRAAKRRLGSVEAPKTNKSPEAKPLPGKLPKGISAGAVQTAGKKGPQSLFNAPRGKKRPAPGSDEEEEEEDSEEDGMVNHGDLWGSEDDADTVDDYGADSNSEDEEEGEALLPIERAARKQKAREAAAGIQWSEEETEDEEEEKEVTPESGPPKVEEADGGLQINVDEEPFVLPPAGEMEQDAQAPDLQRVHKRIQDIVGILRDFGAQREEGRSRSEYLNRLKKDLAIYYSYGDFLLGKLMDLFPLSELVEFLEANEVPRPVTLRTNTLKTRRRDLAQALINRGVNLDPLGKWSKTGLVVYDSSVPIGATPEYLAGHYMLQGASSMLPVMALAPQEHERILDMCCAPGGKTSYMAQLMKNTGVILANDANAERLKSVVGNLHRLGVTNTIISHYDGRQFPKVVGGFDRVLLDAPCSGTGVISKDPAVKTNKDEKDILRCAHLQKELLLSAIDSVNATSKTGGYLVYCTCSITVEENEWVVDYALKKRNVRLVPTGLDFGQEGFTRFRERRFHPSLRSTRRFYPHTHNMDGFFIAKFKKFSNSIPQSQTGNSETATPTNVDLPQVIPKSENSSQPAKKAKGAAKTKQQLQKQQHPKKASFQKLNGISKGADSELSTVPSVTKTQASSSFQDSSQPAGKAEGIREPKVTGKLKQRSPKLQSSKKVAFLRQNAPPKGTDTQTPAVLSPSKTQATLKPKDHHQPLGRAKGVEKQQLPEQPFEKAAFQKQNDTPKGPQPPTVSPIRSSRPPPAKRKKSQSRGNSQLLLS
With B3 as the molecule, how does the “Total (total peptides)” value [1] read?
Its value is 19.

What about the “Unique (unique peptides)” value [1] of the same molecule?
Its value is 15.

And the “Total (peptides)” value [5]?
Its value is 2.

What about the “Unique (peptides)” value [5] of the same molecule?
The value was 2.

And the “Total (peptides)” value [3]?
Its value is 12.

What about the “Unique (peptides)” value [3] of the same molecule?
Its value is 10.

B4: SMC1A (protein, UniProt Q14683 1-1233, looked up)
Structural maintenance of …: MGFLKLIEIENFKSYKGRQIIGPFQRFTAIIGPNGSGKSNLMDAISFVLGEKTSNLRVKTLRDLIHGAPVGKPAANRAFVSMVYSEEGAEDRTFARVIVGGSSEYKINNKVVQLHEYSEELEKLGILIKARNFLVFQGAVESIAMKNPKERTALFEEISRSGELAQEYDKRKKEMVKAEEDTQFNYHRKKNIAAERKEAKQEKEEADRYQRLKDEVVRAQVQLQLFKLYHNEVEIEKLNKELASKNKEIEKDKKRMDKVEDELKEKKKELGKMMREQQQIEKEIKEKDSELNQKRPQYIKAKENTSHKIKKLEAAKKSLQNAQKHYKKRKGDMDELEKEMLSVEKARQEFEERMEEESQSQGRDLTLEENQVKKYHRLKEEASKRAATLAQELEKFNRDQKADQDRLDLEERKKVETEAKIKQKLREIEENQKRIEKLEEYITTSKQSLEEQKKLEGELTEEVEMAKRRIDEINKELNQVMEQLGDARIDRQESSRQQRKAEIMESIKRLYPGSVYGRLIDLCQPTQKKYQIAVTKVLGKNMDAIIVDSEKTGRDCIQYIKEQRGEPETFLPLDYLEVKPTDEKLRELKGAKLVIDVIRYEPPHIKKALQYACGNALVCDNVEDARRIAFGGHQRHKTVALDGTLFQKSGVISGGASDLKAKARRWDEKAVDKLKEKKERLTEELKEQMKAKRKEAELRQVQSQAHGLQMRLKYSQSDLEQTKTRHLALNLQEKSKLESELANFGPRINDIKRIIQSREREMKDLKEKMNQVEDEVFEEFCREIGVRNIREFEEEKVKRQNEIAKKRLEFENQKTRLGIQLDFEKNQLKEDQDKVHMWEQTVKKDENEIEKLKKEEQRHMKIIDETMAQLQDLKNQHLAKKSEVNDKNHEMEEIRKKLGGANKEMTHLQKEVTAIETKLEQKRSDRHNLLQACKMQDIKLPLSKGTMDDISQEEGSSQGEDSVSGSQRISSIYAREALIEIDYGDLCEDLKDAQAEEEIKQEMNTLQQKLNEQQSVLQRIAAPNMKAMEKLESVRDKFQETSDEFEAARKRAKKAKQAFEQIKKERFDRFNACFESVATNIDEIYKALSRNSSAQAFLGPENPEEPYLDGINYNCVAPGKRFRPMDNLSGGEKTVAALALLFAIHSYKPAPFFVLDEIDAALDNTNIGKVANYIKEQSTCNFQAIVISLKEEFYTKAESLIGVYPEQGDCVISKVLTFDLTKYPDANPNPNEQ
Which results are given for B4?
Total (total peptides) [1]: 16; Unique (unique peptides) [1]: 15; Total (total peptides) [2]: 5; Unique (unique peptides) [2]: 5; Total (peptides) [3]: 14; Unique (peptides) [3]: 13; Total (peptides) [4]: 1; Unique (peptides) [4]: 1

B5: SRSF8 (protein, UniProt Q9BRL6 2-282, looked up)
Serine/arginine-rich splicing …: SCGRPPPDVDGMITLKVDNLTYRTSPDSLRRVFEKYGRVGDVYIPREPHTKAPRGFAFVRFHDRRDAQDAEAAMDGAELDGRELRVQVARYGRRDLPRSRQGEPRGRSRGGGYGRRSRSYGRRSRSPRRRHRSRSRGPSCSRSRSRSRYRGSRYSRSPYSRSPYSRSRYSRSPYSRSRYRESRYGGSHYSSSGYSNSRYSRYHSSRSHSKSGSSTSSRSASTSKSSSARRSKSSSVSRSRSRSRSSSMTRSPPRVSKRKSKSRSRSKRPPKSPEEEGQMSS
Which “Total (total peptides)” value [1] does the source give for B5 here?
Its value is 18.

What about the “Unique (unique peptides)” value [1] of the same molecule?
The value was 2.

And the “Total (total peptides)” value [6]?
The value was 1.

What about the “Unique (unique peptides)” value [6] of the same molecule?
The value was 1.
